Experimental findings from patent US9321776B2, “Isochromene derivatives as phoshoinositide 3-kinases inhibitors” (CHIESI FARMACEUTICI S.p.A., priority 2013, dated 2016) are described below.

Sequences of proteins named here, by UniProt entry; tags and fusion partners are left off. A change or cut given only in a name is not applied to a line headed by its entry.
UniProt O00329, whole entry: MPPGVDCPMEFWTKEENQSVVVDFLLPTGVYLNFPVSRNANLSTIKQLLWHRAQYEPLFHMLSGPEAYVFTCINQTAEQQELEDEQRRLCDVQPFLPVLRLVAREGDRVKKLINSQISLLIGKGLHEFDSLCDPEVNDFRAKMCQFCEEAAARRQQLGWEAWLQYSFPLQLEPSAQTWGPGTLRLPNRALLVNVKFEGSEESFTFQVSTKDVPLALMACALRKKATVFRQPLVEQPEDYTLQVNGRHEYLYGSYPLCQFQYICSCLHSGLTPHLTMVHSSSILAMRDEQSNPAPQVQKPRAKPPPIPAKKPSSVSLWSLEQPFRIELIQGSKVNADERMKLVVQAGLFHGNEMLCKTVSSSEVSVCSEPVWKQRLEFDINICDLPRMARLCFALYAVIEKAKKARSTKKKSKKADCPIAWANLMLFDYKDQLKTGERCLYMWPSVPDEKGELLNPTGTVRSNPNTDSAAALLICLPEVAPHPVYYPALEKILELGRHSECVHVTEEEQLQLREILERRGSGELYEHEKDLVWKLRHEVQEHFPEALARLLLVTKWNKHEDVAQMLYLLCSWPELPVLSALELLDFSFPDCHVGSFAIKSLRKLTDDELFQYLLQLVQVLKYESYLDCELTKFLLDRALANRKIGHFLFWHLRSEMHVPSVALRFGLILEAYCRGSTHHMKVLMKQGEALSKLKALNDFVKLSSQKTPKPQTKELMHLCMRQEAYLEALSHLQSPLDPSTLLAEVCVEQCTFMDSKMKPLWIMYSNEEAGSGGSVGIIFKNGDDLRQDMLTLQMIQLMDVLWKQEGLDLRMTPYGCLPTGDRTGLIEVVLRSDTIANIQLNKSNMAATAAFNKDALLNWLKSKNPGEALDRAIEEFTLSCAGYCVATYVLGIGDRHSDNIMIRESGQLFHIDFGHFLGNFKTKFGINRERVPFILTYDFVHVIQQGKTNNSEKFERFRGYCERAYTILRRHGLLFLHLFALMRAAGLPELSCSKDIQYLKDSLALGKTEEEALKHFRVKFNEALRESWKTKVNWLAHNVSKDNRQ
UniProt P42338, whole entry: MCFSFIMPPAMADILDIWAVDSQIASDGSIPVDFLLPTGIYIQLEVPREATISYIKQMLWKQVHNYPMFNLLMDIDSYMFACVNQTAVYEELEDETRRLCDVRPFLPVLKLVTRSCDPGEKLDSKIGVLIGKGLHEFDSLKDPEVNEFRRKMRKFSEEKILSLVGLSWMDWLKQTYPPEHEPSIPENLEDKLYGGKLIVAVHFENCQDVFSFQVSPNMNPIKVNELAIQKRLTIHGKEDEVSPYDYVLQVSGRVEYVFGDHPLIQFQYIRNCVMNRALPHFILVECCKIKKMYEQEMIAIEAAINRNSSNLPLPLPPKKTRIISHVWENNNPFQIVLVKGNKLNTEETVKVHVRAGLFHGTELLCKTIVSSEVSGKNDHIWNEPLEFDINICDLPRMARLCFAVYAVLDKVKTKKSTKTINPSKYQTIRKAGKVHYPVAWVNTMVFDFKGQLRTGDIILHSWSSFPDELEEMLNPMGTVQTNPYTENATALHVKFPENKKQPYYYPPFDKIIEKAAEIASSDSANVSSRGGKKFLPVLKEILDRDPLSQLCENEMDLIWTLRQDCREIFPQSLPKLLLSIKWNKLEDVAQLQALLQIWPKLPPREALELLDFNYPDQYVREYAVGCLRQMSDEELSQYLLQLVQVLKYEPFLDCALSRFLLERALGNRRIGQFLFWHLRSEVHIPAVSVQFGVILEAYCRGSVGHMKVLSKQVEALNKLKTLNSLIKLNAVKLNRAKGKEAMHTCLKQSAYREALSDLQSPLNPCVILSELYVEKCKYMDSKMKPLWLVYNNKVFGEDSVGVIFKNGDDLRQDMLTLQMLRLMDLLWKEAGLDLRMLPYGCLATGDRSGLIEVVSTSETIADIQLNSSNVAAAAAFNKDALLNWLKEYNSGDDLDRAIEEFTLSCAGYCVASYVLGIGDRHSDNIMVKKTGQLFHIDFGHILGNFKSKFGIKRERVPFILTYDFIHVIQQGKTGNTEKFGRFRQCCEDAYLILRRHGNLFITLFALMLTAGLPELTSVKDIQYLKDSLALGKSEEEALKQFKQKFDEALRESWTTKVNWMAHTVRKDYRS
UniProt P48736, whole entry: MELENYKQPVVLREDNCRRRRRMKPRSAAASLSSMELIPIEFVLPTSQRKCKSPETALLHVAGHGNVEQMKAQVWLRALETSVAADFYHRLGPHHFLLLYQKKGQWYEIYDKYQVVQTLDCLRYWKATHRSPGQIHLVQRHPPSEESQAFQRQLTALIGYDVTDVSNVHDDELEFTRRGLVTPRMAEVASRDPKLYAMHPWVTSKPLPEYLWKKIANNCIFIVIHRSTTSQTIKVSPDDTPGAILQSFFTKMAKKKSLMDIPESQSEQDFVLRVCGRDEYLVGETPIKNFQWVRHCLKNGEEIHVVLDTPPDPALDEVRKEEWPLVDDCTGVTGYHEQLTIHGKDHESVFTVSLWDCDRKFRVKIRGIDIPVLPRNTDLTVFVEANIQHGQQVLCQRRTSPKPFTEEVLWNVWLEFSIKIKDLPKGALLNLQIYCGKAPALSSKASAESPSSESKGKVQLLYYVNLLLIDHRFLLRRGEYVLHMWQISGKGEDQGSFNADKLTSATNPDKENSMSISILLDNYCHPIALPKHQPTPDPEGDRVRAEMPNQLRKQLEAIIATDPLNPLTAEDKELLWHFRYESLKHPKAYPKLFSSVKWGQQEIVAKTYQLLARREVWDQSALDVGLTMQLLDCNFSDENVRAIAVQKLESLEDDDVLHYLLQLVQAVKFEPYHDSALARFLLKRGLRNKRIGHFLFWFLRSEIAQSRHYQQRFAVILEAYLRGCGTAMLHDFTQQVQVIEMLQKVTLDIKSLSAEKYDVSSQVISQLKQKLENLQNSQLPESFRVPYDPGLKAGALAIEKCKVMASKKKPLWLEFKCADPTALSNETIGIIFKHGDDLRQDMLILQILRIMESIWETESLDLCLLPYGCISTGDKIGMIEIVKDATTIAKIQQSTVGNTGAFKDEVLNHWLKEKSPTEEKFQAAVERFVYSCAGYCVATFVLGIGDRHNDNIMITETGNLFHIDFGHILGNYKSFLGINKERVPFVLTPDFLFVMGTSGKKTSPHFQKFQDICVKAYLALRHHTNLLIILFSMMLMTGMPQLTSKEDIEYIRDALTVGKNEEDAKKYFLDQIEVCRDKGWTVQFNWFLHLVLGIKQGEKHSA
UniProt P42336, whole entry: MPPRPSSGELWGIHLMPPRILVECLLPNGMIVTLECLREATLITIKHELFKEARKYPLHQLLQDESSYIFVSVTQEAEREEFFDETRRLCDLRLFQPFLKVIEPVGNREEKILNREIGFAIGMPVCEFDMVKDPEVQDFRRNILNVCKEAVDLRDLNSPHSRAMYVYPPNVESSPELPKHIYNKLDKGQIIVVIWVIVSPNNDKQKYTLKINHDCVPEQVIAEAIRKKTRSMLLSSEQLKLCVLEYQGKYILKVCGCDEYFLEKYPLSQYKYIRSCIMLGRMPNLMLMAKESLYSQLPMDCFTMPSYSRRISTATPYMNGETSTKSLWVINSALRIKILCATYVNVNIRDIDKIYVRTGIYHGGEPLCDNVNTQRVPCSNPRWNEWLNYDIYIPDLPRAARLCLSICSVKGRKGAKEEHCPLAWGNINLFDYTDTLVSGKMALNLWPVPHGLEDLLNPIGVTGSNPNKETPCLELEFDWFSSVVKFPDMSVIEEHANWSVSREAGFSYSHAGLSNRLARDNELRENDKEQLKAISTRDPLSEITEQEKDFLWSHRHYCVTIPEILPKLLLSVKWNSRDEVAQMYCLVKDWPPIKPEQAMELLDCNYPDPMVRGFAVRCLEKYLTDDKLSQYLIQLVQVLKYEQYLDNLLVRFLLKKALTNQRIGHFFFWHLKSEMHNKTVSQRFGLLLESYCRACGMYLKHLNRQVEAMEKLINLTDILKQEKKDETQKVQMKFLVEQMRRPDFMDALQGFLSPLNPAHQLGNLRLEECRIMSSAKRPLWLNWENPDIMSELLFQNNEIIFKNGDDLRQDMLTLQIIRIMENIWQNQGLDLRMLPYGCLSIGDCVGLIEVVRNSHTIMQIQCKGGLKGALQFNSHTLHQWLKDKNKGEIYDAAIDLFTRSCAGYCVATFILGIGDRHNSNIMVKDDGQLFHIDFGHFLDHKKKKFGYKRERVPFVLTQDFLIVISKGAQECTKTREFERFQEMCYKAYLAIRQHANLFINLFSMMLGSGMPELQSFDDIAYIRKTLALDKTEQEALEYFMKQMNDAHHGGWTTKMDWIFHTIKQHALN
UniProt P27986, whole entry partner: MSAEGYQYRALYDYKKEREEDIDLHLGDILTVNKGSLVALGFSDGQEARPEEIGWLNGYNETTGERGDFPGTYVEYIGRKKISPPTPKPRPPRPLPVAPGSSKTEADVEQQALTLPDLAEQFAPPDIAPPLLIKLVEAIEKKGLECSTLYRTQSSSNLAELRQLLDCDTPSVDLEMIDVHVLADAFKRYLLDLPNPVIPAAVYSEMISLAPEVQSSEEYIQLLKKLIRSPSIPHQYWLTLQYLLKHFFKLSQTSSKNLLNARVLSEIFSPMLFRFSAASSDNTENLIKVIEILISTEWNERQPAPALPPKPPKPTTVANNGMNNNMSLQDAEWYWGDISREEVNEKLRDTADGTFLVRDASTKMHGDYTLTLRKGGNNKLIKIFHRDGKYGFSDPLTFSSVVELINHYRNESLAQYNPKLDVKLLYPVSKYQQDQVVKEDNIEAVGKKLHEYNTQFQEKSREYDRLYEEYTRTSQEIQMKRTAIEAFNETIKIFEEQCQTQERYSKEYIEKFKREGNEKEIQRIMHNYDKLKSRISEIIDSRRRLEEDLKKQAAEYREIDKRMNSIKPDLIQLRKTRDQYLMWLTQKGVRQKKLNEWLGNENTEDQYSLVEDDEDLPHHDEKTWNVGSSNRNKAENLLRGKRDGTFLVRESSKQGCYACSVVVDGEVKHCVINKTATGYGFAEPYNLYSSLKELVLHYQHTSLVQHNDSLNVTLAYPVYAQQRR

The structures appear in SMILES notation. pIC50: −log10 of the molar value. Structures were worked out from names or drawings and are uncertain.

What all share (assay): PI3K enzyme inhibitory activity in the cell free assay (ADP-Glo Kinase Assay)
What all share (type): biochemical

Experiment [1] concerns the target PI3Kδ (Homo sapiens, UniProt O00329). Particulars: read-out: PI3K delta inhibition; human recombinant PI3Kδ, ATP 80 μM; tested form: 2HCl.
The target of experiment [2] is PI3Kβ (Homo sapiens, UniProt P42338). Particulars: read-out: PI3K beta inhibition; human recombinant PI3Kβ, ATP 100 μM; tested form: 2HCl.
The target in experiment [3] is PI3Kγ (Homo sapiens, UniProt P48736). The note with it: read-out: PI3K gamma inhibition; human recombinant PI3Kγ, ATP 30 μM; tested form: 2HCl.
Experiment [4] has as its target PI3Kα (Homo sapiens, UniProt P42336). Particulars: read-out: PI3K alpha inhibition; human recombinant PI3Kα, ATP 50 μM; tested form: 2HCl.

Take `CC(C)N1CCC(N2CC=C(c3c(C(C)n4nc(-c5cc(O)cc(F)c5)c5c(N)ncnc54)oc(=O)c4ccccc34)CC2)CC1` (stereo not shown): the pIC50 in experiment [1] is above 8.00; in experiment [2], 6.00 to 8.00; in experiment [3], below 6.00; in experiment [4] it was below 6.00.
